Experiment [1] addresses GST-fused C-terminal domain of FIP200 (amino acid residues 1357-1594) (human) (UniProt Q8TDY2). As to the kind of experiment: pull-down; GST-FIP200 recombinant protein immobilized on glutathione beads, mixed with cell lysate containing ectopically expressed HA-tagged COP1; bound proteins blotted with antibody against COP1; only the target purified.
Experiment [2] deals with HA-GFP-fused COP1, SA mutant (mouse) (UniProt Q9R1A8). Description: co-IP; lysates of NIH3T3 transfectants immunoprecipitated with rabbit antibody to an HA-epitope (normal rabbit serum as control); blot with antibody against COP1.
In experiment [3] the target is HA-GFP-fused COP1, wild type (mouse) (UniProt Q9R1A8). The description is as above.
In experiment [4] the target is wild-type full-length COP1 fused to the C-terminal half of YFP (COP1-YC) (mouse) (UniProt Q9R1A8). Description: split reporter; split GFP (YFP) halves YN (1-154) and YC (155-238) fused to the two proteins; NIH3T3 cells transfected, before and after treatment with UV; fluorescence microscopy and flow cytometer. For orientation: In flow cytometry, cells or beads pass a laser one at a time.

Amino acid sequences for entries named in this document (tags omitted). A change or cut given only in a name is not applied to a line headed by its entry. Chains listed by the source or under a name are the forms on record and can include a tag or linker. Residues count along the entry.
UniProt Q8TDY2: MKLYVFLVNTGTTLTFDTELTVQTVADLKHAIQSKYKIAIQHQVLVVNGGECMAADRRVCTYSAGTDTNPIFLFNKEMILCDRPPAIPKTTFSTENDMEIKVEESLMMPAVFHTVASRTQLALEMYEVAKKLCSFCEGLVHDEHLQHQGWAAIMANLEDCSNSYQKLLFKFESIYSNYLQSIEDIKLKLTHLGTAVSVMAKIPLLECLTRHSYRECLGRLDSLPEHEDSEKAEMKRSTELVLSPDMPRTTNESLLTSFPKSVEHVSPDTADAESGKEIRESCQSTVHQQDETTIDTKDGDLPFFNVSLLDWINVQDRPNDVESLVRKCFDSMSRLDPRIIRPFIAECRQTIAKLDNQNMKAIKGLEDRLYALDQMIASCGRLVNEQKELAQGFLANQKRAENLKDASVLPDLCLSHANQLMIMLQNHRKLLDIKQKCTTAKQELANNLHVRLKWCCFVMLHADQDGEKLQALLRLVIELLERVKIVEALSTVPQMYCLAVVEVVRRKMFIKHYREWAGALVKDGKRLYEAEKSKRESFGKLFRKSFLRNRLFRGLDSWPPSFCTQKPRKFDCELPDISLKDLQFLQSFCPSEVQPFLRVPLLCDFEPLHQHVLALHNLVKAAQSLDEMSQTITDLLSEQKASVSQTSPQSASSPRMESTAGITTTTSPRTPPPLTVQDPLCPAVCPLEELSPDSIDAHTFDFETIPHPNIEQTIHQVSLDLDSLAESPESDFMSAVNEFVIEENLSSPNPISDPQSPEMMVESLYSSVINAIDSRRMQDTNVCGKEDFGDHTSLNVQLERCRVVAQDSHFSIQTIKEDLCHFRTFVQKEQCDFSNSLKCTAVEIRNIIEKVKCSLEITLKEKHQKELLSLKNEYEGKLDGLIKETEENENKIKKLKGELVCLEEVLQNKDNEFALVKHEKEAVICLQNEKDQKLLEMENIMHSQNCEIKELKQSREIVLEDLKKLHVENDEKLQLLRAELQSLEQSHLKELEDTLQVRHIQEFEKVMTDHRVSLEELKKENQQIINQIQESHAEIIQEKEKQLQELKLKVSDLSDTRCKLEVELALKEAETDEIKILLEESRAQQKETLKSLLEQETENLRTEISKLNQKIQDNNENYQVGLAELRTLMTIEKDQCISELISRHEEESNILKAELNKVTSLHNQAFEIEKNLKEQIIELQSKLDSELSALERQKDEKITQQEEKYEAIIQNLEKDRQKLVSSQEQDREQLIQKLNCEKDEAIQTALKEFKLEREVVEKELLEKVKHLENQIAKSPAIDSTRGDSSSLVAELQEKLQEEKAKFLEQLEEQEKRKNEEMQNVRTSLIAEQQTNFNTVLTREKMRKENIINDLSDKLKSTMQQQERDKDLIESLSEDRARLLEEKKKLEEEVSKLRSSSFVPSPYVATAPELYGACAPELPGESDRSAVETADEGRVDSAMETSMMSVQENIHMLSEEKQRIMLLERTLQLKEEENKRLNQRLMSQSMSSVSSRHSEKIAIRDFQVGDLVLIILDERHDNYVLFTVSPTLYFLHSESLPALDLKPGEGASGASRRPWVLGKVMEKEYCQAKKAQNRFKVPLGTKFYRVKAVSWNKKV
GST-fused C-terminal domain of FIP200 (amino acid residues 1357-1594): residues 1357-1594 of Q8TDY2
UniProt Q9R1A8: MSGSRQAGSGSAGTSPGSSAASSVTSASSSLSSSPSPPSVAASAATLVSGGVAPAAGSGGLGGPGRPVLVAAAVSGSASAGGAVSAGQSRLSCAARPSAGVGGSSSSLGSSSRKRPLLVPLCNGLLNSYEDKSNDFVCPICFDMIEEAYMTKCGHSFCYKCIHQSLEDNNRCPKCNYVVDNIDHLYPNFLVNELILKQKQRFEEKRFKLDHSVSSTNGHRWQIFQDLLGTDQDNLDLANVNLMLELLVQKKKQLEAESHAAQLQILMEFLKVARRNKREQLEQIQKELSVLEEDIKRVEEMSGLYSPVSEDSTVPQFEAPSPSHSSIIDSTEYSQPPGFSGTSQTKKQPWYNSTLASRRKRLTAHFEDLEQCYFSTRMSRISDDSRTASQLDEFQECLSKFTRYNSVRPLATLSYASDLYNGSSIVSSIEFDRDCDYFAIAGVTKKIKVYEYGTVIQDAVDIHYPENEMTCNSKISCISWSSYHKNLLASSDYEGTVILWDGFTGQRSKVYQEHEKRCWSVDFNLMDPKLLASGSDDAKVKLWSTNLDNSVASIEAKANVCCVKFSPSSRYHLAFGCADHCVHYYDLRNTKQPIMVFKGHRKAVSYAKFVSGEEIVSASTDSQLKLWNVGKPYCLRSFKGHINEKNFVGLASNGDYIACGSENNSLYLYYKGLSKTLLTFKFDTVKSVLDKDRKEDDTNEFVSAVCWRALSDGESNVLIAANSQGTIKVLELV
HA-GFP-fused COP1, SA mutant (Q9R1A8, form named): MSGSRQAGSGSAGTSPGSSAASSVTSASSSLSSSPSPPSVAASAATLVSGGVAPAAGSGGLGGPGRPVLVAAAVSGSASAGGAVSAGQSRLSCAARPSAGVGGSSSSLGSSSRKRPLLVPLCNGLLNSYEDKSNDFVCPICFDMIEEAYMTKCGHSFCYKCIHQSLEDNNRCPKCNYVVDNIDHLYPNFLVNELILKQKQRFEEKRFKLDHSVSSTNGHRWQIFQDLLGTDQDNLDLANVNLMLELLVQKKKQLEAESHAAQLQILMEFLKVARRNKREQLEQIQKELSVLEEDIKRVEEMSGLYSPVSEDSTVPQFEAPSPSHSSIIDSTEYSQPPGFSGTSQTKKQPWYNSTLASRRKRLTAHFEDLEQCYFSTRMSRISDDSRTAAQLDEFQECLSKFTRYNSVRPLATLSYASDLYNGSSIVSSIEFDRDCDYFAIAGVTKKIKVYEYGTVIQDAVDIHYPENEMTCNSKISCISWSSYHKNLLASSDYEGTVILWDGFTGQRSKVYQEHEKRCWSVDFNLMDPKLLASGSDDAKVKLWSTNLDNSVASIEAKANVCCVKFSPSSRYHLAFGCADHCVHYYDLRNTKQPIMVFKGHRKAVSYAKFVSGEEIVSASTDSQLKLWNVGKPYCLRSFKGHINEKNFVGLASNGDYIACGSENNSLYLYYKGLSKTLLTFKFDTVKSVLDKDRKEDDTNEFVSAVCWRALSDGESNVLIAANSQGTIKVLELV

In experiment [5] the target is full-length FIP200 fused to the N-terminal half of YFP (FIP200-YN) (human) (UniProt Q8TDY2). The experiment is described as above.

These are yes or no findings as the source states them, for the method shown. Binding seen in cells or lysates may run through a third protein. Some entries that bind do so weakly or less than the wild type.

With “HA-tagged wild-type COP1 (from UniProt Q9R1A8 1-733)”, the binding entry in experiment [1] was “binds”.

With “endogenous COP1 protein of NIH3T3 cells (from UniProt Q9R1A8 1-733)”, the binding entry in experiment [2] and in experiment [3] was “binds” each time.

As to “full-length COP1 fused to the N-terminal half of YFP (COP1-YN) (from UniProt Q9R1A8 1-733)”, the binding entry in experiment [4] is given as “binds”.

As for “wild-type full-length COP1 fused to the C-terminal half of YFP (COP1-YC) (from UniProt Q9R1A8 1-733)”, in experiment [5], the binding result is recorded as “binds”.

For the origin of these results see paper PMC3548756.
